The values that follow come from PubChem BioAssay AID1195 (EPA DSSTox, 2008).

The test system of the data set is human maximum recommended daily dose, FDA database. Nature of the data set: DSSTox (FDAMDD) FDA Maximum (Recommended) Daily Dose Database. The settings on record: TherapeuticCategory: none; active compounds read low. An excerpt: The Food and Drug Administration (FDA) Center for Drug Evaluation and Research, Office of Pharmaceutical Science, Informatics and Computational Safety Analysis Staff's Maximum Recommended Daily Dose (FDAMDD) database contains values for over 1200 pharmaceuticals listed in Martindale: The Extra Pharmacopoeia (1973, 1983, and 1993) and The Physicians' Desk Reference (1995 and 1999). Some classes of chemicals were excluded from the FDAMDD database due to their unsuitability for most QSAR modeling programs. These were inorganic chemicals, high molecular weight polymers (>5000 Daltons), fibers, salts, mixtures of organic chemicals, and small molecules (<100 Daltons). FDAMDD is the non-proprietary portion of the database that was used in the QSAR analysis reported in the Main Citation. DSSTox FDAMDD has fewer substance records than the original MRDD Source database due to consolidation of partial structures (i.e., complexed entities) into a single record and elimination of duplicate entries. […]
Maximum recommended daily dose (or maximum recommended therapeutic dose) values were determined from pharmaceutical clinical trials that employed an oral route of exposure and daily treatments, usually for 3-12 months. […]

In the case of `CC(=O)N(C)C`, the maximum recommended daily dose (mmol/kg-bw/day) was 0.00669.
